Results as given in the supplement of paper PMC8166895.
Values joined by “and” are separate entries in the source; they are usually repeats but may differ in a detail not shown here. Identical values can stand only once. Counter-ions that a name gives are not always drawn. The list shows a part of the results. Most entries show no effect beyond the scatter of the controls.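 A single-replicate pilot screen of approved drugs and clinical or known-target compounds measured melting temperature via differential scanning fluorimetry. Top stabilizing hits raised the melting point by 2 °C or more; negative shifts indicate destabilization.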

System: SARS-CoV-2 main protease (Mpro, nsp5)
Assay: thermal shift ΔTm of Mpro relative to plate average Tm; higher = stronger thermal stabilization of Mpro (binding)
Settings: 10 µM; protein concentration 1 µM

Structure (SMILES) | thermal shift ΔTm of Mpro
COc1ccc2[nH]cc(/C=C3\C(=O)Nc4ccc(NC(=O)CCN5CCCCC5)cc43)c2c1 | 0.0271 °C
O=C(NC(Cc1cc(=O)[nH]c2ccccc12)C(=O)O)c1ccc(Cl)cc1 (configuration not stated) [Rebamipide] | 0.0723 °C
COc1ccc(S(=O)(=O)N2CCCN(S(=O)(=O)c3ccc(OC)c(OC)c3)CC2)cc1OC | -0.0481 °C
CCCCCCCCCCCCCCCc1cccc(O)c1C(=O)O [Anacardic Acid] | 0.444 °C
O=C(NNc1nc2cc(F)ccc2n2cccc12)c1cnccn1 | 0.0113 °C
CC(C)c1cc(C(C)C)c(CC(=O)NS(=O)(=O)Oc2c(C(C)C)cccc2C(C)C)c(C(C)C)c1 [Avasimibe] | -0.871 °C
COC(=O)/C=C/C(=O)OC [Dimethyl Fumarate] | -0.0799 °C
CCOC(=O)C1=C(C)NC(C)=C(C(=O)OC)C1c1cccc(Cl)c1Cl (configuration not stated) [Felodipine] | -0.123 °C
C[C@@]12C[C@@]3(O)O[C@@H](O1)[C@]1(COC(=O)c4ccccc4)[C@@H]3C[C@]12O[C@@H]1O[C@H](COC(=O)c2ccccc2)[C@@H](O)[C@H](O)[C@H]1O [Benzoylpaeoniflorin] | -0.00132 °C
CO[C@H]1C[C@H](O[C@@H]2/C(C)=C/C[C@@H]3C[C@@H](C[C@]4(CC[C@H](C)[C@@H](C5CCCCC5)O4)O3)OC(=O)[C@@H]3C=C(C)/C(=N/O)[C@H]4OC/C(=C\C=C\[C@@H]2C)[C@]43O)O[C@@H](C)[C@@H]1O [Selamectin] | -0.418 °C
CN1CCN(Cc2ccc(-c3cnc4[nH]cc(-c5ccc6[nH]ccc6c5)c4c3)cc2)CC1 | -0.199 °C
CC1(C)CC[C@]2(NC(=O)C(C)(F)F)CC[C@]3(C)[C@H](C(=O)C=C4[C@@]5(C)C=C(C#N)C(=O)C(C)(C)[C@@H]5CC[C@]43C)[C@@H]2C1 [Omaveloxolone (RTA-408)] | -0.983 °C
O=C1c2c(O)ccc(O)c2C(=O)c2c(NCCNCCO)ccc(NCCNCCO)c21 [Mitoxantrone] | 0.558 °C
O=C1c2c(O)ccc(O)c2C(=O)c2c(NCCNCCO)ccc(NCCNCCO)c21 [Mitoxantrone HCl] | 0.441 °C
CCOC(=O)c1ccc(NC2CCCCC2)c(N)c1 [Ferrostatin-1 (Fer-1)] | -0.142 °C
CC(=O)O[C@H]1C[C@@H]2CC[C@@H]3[C@H](CC[C@@]4(C)[C@H]3C[C@H]([N+]3(C)CCCCC3)[C@@H]4OC(C)=O)[C@@]2(C)C[C@@H]1[N+]1(C)CCCCC1 [Pancuronium dibromide] | 0.0124 °C
CC(C)c1cnn2c(NCc3ccccc3)cc(NCCCCCCN)nc12 | -0.122 °C and -0.157 °C
Cc1ccc(/N=C/N(C)/C=N/c2ccc(C)cc2C)c(C)c1 [Amitraz] | -0.117 °C
COc1cc2nc(N3CCCN(C)CC3)nc(NC3CCN(Cc4ccccc4)CC3)c2cc1OC | -0.19 °C
N[C@@H](CCCCNC(=O)C(F)(F)F)C(=O)O [N-6-Trifluoroacetyl-L-lysine] | 0.233 °C
O=C(c1ccc(F)c(F)c1Nc1ccc(I)cc1F)N1CC(O)([C@@H]2CCCCN2)C1 [Cobimetinib (GDC-0973, RG7420)] | -0.22 °C
O=c1c2ccccc2[se]n1-c1ccccc1 [Ebselen] | -9.09 °C
CN1CCN(c2ccc3[nH]c(-c4ccc5[nH]c(-c6ccc(O)cc6)nc5c4)nc3c2)CC1 | 0.498 °C
Cc1c(C(=O)N2CCOc3ccc(-c4ccc(N)nc4)cc3C2)ccc(S(C)(=O)=O)c1F | -0.127 °C
c1ccc2c(c1)Nc1ccccc1S2 [Phenothiazine] | 0.432 °C
CC(NCCc1ccc(O)cc1)C(O)c1ccc(O)cc1 (configuration not stated) [Ritodrine HCl] | 0.262 °C

Structure (SMILES) | thermal shift ΔTm of Mpro
C[N+](C)(CCOc1ccccc1)Cc1ccccc1.O=C([O-])c1cc2ccccc2cc1O [Bephenium Hydroxynaphthoate] | 0.25 °C
NC1CCN(c2c(F)cc3c(=O)c(C(=O)O)cn(C4CC4)c3c2Cl)C1 (configuration not stated) [Clinafloxacin] | 0.00239 °C
NC[C@@H]1O[C@H](O[C@H]2[C@@H](O)[C@H](O[C@@H]3[C@@H](O)[C@H](N)C[C@H](N)[C@H]3O[C@H]3O[C@H](CN)[C@@H](O)[C@H](O)[C@H]3N)O[C@@H]2CO)[C@H](N)[C@@H](O)[C@@H]1O [Neomycin Sulphate B] | -0.0878 °C
CC(C)(O)CC(=O)NCCn1ccc2ncnc(Nc3ccc(Oc4cccc(C(F)(F)F)c4)c(Cl)c3)c21 | 0.711 °C
O=C1CSc2ccccc2N1Cc1cccc(C(F)(F)F)c1 | -0.0225 °C
C[C@H](Nc1ncnc2nc[nH]c12)c1cc2cccc(Cl)c2c(=O)n1-c1ccccc1 | 1.53 °C
CCN1CCN(Cc2ccc(NC(=O)c3ccc(C)c(NC(=O)c4cncc(-c5cccs5)c4)c3)cc2C(F)(F)F)CC1 | 0.112 °C
O=[N+]([O-])c1ccc(O)c2ncccc12 [Nitroxoline] | 0.34 °C
N#CC[C@H](C1CCCC1)n1cc(-c2ncnc3[nH]ccc23)cn1 | -0.0821 °C and -0.0714 °C and 0.138 °C
COc1cccc(NCC(F)Cn2c3ccc(Br)cc3c3cc(Br)ccc32)c1 (configuration not stated) | 0.413 °C
CCCc1nn(C)c2c(=O)[nH]c(-c3cc(S(=O)(=O)N4CCN(C)CC4)ccc3OCC)nc12 [Sildenafil Citrate] | 0.103 °C
CN(C[C@@H]1COCCO1)S(=O)(=O)Nc1ccc2ccc3ncc(-c4cnn(C)c4)cc3c(=O)c2c1 | 0.0216 °C
NNC(=O)c1ccncc1.Nc1ccc(C(=O)O)c(O)c1 [Pasiniazid] | -0.116 °C
O=C(CSc1nc2c(c(=O)n1-c1ccccc1)SCC2)Nc1ccc(-c2ccccc2)cn1 | -0.148 °C
C[C@@H]1CN(c2c(F)c(F)c3c(=O)c(C(=O)O)cn(C4CC4)c3c2F)C[C@H](C)N1 [Orbifloxacin] | 0.255 °C
CCNC1(C(N)=O)CCN(c2ncnc3c2nc(-c2ccccc2Cl)n3-c2ccc(Cl)cc2)CC1 [Otenabant hydrochloride] | 0.0512 °C
CCOC(=O)CC(=O)N1CCSC1COc1ccccc1OC (configuration not stated) [Moguisteine] | -0.00904 °C
CNCc1ccc(C)c(NC(=O)c2ccc(Nc3nc(-c4ccccc4)c4ccccc4n3)cc2)c1 | -0.0368 °C
CCCc1cc2c(N3CCN(C4=NCC(C)(C)S4)CC3)ncnc2s1 [MI-2 (Menin-MLL Inhibitor)] | 0.0684 °C
CCCCN1CCCC[C@H]1C(=O)Nc1c(C)cccc1C [Levobupivacaine] | 0.016 °C
CCCCN1CCCC[C@H]1C(=O)Nc1c(C)cccc1C [Levobupivacaine HCl] | 0.03 °C
O=C1Nc2ccc(Cl)cc2[C@@](C#CC2CC2)(C(F)(F)F)O1 [Efavirenz] | -0.267 °C
Nc1ccc(C(=O)O)c(O)c1 [Aminopar] | -0.0567 °C
Nc1ccc(C(=O)O)c(O)c1 [Sodium 4-aminosalicylate dihydrate] | 0.196 °C
Nc1ccc(C(=O)O)c(O)c1 [Sodium 4-Aminosalicylate] | 0.383 °C
O=C(O)C1(c2ccc(-c3ccc(Cl)c(Cl)c3)c(F)c2)CC1 | -0.201 °C

Structure (SMILES) | thermal shift ΔTm of Mpro
COc1cc(CCc2cc(NC(=O)c3ccc(N4CC(C)NC(C)C4)cc3)n[nH]2)cc(OC)c1 (configuration not stated) | 0.0487 °C
O=C(O)Cn1nnc(-c2cc(N3CCC(Oc4cc(F)ccc4Br)CC3)no2)n1 | 0.102 °C
O=C(O)c1ccccc1Nc1cccc(C(F)(F)F)c1 [Flufenamic acid] | -0.0229 °C
c1ccc(-c2nn3c(c2-c2ccnc4cc(OCCN5CCOCC5)ccc24)CCC3)nc1 | 0.00241 °C
CN1CCCCC1Cn1cc(C(=O)c2cc([N+](=O)[O-])ccc2I)c2ccccc21 (configuration not stated) | -0.0989 °C
O=C1O[C@H]([C@@H](O)CO)C(O)=C1O [Vitamin C] | 0.0649 °C
Clc1ccc(C(c2ccccc2Cl)C(Cl)Cl)cc1 (configuration not stated) [Mitotane] | -0.0769 °C
c1ccc(CNc2nc(N3CCOc4ccccc43)nc3c2CCCC3)cc1 | 0.15 °C
Cc1cccc(C)c1OCC(=O)N[C@@H](Cc1ccccc1)[C@@H](O)C[C@H](Cc1ccccc1)NC(=O)[C@H](C(C)C)N1CCCNC1=O [Lopinavir] | -0.174 °C
O=C(O)C(=O)c1cn(Cc2ccccc2)c2ccc(-c3ccc(OC(F)(F)F)cc3)cc12 [Tiplaxtinin] | -0.14 °C
CCOC(=O)c1csc(Nc2ccc(Cl)cc2)n1 | 0.13 °C
Nc1ccc(/N=N/c2ccccc2)c(N)n1 [Phenazopyridine HCl] | -0.129 °C
CCC(=O)O[C@]1(C(=O)SCF)[C@H](C)C[C@H]2[C@@H]3C[C@H](F)C4=CC(=O)C=C[C@]4(C)[C@@]3(F)[C@@H](O)C[C@@]21C [Fluticasone propionate] | 0.149 °C
O=c1ccc2cc(O[C@@H]3O[C@H](CO)[C@@H](O)[C@H](O)[C@H]3O)c(O)cc2o1 [Esculin] | 0.241 °C
O=C(Nc1ccc(CN2CCOCC2)cc1)c1ccc(-c2cccc(Cl)c2)o1 | -0.113 °C
CN1CCC(=C2c3ccccc3CCn3c(C=O)cnc32)CC1 [Alcaftadine] | -0.247 °C
OCCN1CCN(CC/C=C2/c3ccccc3Sc3ccc(Cl)cc32)CC1 [Zuclopenthixol] | -0.287 °C
Cc1[nH]nc2ccc(-c3cncc(OC[C@@H](N)Cc4ccccc4)c3)cc12 | -0.00124 °C and 0.031 °C
C/C=C(/C)C(=O)O[C@H]1c2cc3c(c4c2[C@@]2(CO4)C(=O)C(OC)=C(OC)C=C2C[C@@H](C)[C@H]1C)OCO3 [Heteroclitin D] | -0.0556 °C
Cc1cn(-c2cc(NC(=O)c3ccc(C)c(Nc4nccc(-c5cnccn5)n4)c3)cc(C(F)(F)F)c2)cn1 [Radotinib] | 0.13 °C
CC(C)[C@H](O)C(=O)N[C@@H](C)C(=O)N[C@@H]1C(=O)N(C)CCc2ccccc21 | -0.0855 °C
O=CN1CC/C(=C/c2ccc3c(c2)OCO3)C1=O | -0.136 °C
CC(C)c1noc(N2CCC(COc3ccc(-c4ccc(S(C)(=O)=O)cc4)nc3)CC2)n1 | -0.176 °C
O=C(NC1CCNCC1)c1n[nH]cc1NC(=O)c1c(Cl)cccc1Cl | -0.0418 °C and 0.633 °C
COc1ccc(CC2NCCc3cc(OC)c(OC)cc32)cc1OC (configuration not stated) [Tetrahydropapaverine HCl] | -0.0441 °C
